According to patent publication EP0405506A1, “Tetrapeptide type-B CCK receptor ligands” (ABBOTT LABORATORIES, priority 1989, dated 1991):
For at least one compound, name, drawing or mass did not settle the structure.

Tests used:
CCK receptors = molecular target: T1, CCK receptors (Cavia porcellus, UniProt Q63931); test: Radioligand binding ([125I]Bolton-Hunter CCK8) in guinea pig pancreatic membranes; details: displacement of [125I]BH-CCK8, pancreatic membranes, 37°C for 150 min, Hill analysis; read-out: IC₅₀ (uM) pancreas
T1 construct: Cortical and pancreatic membranes were prepared as described; from tissue; host or cells: guinea pig pancreas membranes
T1 sequence (Q63931 1-430): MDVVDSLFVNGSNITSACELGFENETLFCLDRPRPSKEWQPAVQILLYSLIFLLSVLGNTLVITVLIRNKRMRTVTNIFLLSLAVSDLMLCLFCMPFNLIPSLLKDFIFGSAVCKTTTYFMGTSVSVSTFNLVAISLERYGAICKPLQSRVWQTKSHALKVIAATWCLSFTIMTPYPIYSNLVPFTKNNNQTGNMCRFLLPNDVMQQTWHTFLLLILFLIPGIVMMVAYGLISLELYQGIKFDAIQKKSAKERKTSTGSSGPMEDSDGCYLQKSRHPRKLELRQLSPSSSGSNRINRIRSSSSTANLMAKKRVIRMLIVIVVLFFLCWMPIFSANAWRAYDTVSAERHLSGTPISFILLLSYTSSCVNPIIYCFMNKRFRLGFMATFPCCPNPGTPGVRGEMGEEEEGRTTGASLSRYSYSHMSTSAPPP

cortical CCK receptor = molecular target: T2, cortical CCK receptor (Cavia porcellus, UniProt H0VZC5); test: Radioligand binding ([125I]Bolton-Hunter CCK8) in guinea pig cerebral cortical membranes; details: displacement of [125I]BH-CCK8, cortical membranes, 30°C for 150 min, Hill analysis; read-out: IC₅₀ (nM) cortex
T2 construct: Cortical and pancreatic membranes were prepared as described; from tissue; host or cells: guinea pig cerebral cortex membranes
T2 sequence (H0VZC5 1-426): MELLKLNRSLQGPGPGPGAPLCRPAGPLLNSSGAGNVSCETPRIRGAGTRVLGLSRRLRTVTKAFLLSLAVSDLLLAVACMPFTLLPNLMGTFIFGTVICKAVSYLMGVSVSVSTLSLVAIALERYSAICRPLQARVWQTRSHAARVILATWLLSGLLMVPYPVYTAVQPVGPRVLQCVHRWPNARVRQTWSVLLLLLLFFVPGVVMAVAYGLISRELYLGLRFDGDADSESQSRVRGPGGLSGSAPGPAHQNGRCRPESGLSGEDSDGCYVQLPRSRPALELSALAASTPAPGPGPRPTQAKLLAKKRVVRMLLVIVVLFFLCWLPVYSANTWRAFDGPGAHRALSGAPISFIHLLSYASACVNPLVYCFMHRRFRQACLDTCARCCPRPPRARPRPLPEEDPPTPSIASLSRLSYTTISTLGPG
Excerpt: Protocol for Radioligand Binding Experiments in Guinea Pig Cerebral Cortical and Pancreatic Membrance Preparations
CCK8 (Asp-Tyr(SO₃H)-Met-Gly-Trp-Met-Asp-Phe-NH₂), bestatin and phosphormaidon were purchased from Peptide International (Louisville, KY). EGTA, HEPES, BSA were purchased from Sigma Chemical Co. (St. Louis, MO). [¹²⁵I]-Bolton-Hunter CCK8 (BH-CCK8) (specific activity, 2200 Ci, mmol) was obtained from New England Nuclear (Boston, MA). Male ginea pigs, 250 to 325 g, were obtained from Scientific Small Animal Laboratory and Farm (Arlington Heights, IL). Collangenase, code CLSPA was purchased from Worthington (Frehold, NJ).
Cortical and pancreatic membranes were prepared as described (Lin and Miller; J. Pharmacol. Exp. Ther. 232, 775-780, 1985). In brief, pancreas and cortex were removed and rinsed with ice-cold saline. Visible fat and connective tissues were removed from the pancreas. Tissues were weighed and homogenized in approximately 25 mL of ice-cold 50 mM Tris-HCl buffer, pH 7.4 at 4°C with a Brinkman Polytron for 30 sec, setting 7. The homogenates were centrifuged for 10 min at 1075 x g and the pellet was discarded. The supernantants were saved and centrifuged at 38,730 x g for 20 min. […]
[¹²⁵I]Bolton-Hunter CCK8 and test compounds were diluted with HEPES-EGTA-salt buffer (see above) containing 0.5% bovine serum albumin (BSA). […] IC₅₀s were determined from the Hill analysis.

## CC(C)C[C@@H](C(=O)N[C@@H](CC(=O)O)C(=O)N[C@@H](Cc1ccccc1)C(N)=O)N1CC(=O)N[C@@H](Cc2ccc3ccccc3c2)C1=O [Example 67, 2-[3-(Naphthyl-2-methyl)diketopiperazinyl]isocaoroyl-Asp-Phe-NH₂]
CCK receptors
  IC50: > 10 µM
Cortical CCK receptor
  IC50: 33 nM
